Patent publication US20170088620A1
These are yes or no findings as the source states them, for the method shown. Some binding calls cover weakened binding; strength is not graded here.

Molecular target: T1, human ASGR-1 carbohydrate binding domain (CBD) (148-291) (human) (UniProt P07306)
T1 sequence: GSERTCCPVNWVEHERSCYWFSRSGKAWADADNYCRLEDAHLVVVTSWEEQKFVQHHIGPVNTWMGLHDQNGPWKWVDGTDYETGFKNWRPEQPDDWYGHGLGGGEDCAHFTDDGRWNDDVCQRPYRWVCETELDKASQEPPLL
Test: X-ray co-crystal structure; complex purified by size exclusion chromatography

B1: 194C10 Fab (Fab, V domains shown)
VH: QVQLQQWGAGLLKPSETLSLTCAVSGGSFRYYYWSWIRQPPGKGLEWFGEINHAGSTNYNPSLKSRVTISIDTSKNQFSLKLRSVTAADTAVYYCARDYGAFDIWGQGTMVTVSS
VL: EIVLTQSPGTLSLSPGERATLSCRASPSVNSGYLAWYQQKPGQTPRLLIFGASSRATGIPDRFSASGSGADFTLTISRLEPEDFAVYFCQQYESSPWTFGQGTKVEIKR
In the case of B1, the binding is reported as “binds”.

B2: 4A2 Fab (Fab, V domains shown)
VH: QVQLVQSGTEVKKPGASVKVSCKASGYTFTNYDINWVRQATGQGLEWMGWMHPNSGNTGYAQKFQGRVTLTRDTSISTAYMELSSLRSEDTAVYYCASSSGWYYFDYWGQGTLVTVSS
VL: DIVMTQSPDSLAVSLGERATINCKSSQSILHSSNNNNYLAWFQQKPGQPPKLLLYWASTRESGVPDRFSGSGSGTDFTLTISSLQPEDVAVYYCQQYYNTPVTFGPGTKVGIKR
With B2 the binding was “binds”.

B3: 4H6 Fab (Fab, V domains shown)
VH: QVQLVQSGAEVKKPGASVKVSCKASGYTFTDYYLHWVRQAPGQGLEWMGWIHPNSGGTNYAQKFQGRVTMTRDTSISTAYMGLSSLRSDDTAVYYCARDGTSSFDYWGQGTLVTVSS
VL: DIQMTQSPSSVSASVGDRVTITCRASQGISRWLAWYQQKPGKAPKLLIYGASSLQSGVPSRFSGSGSGTDFTLTISSLQPEDFAIYYCQQANSFPFTFGPGTKVDIKG
With B3 the binding was “binds”.

B4: 72G9 Fab (Fab, V domains shown)
VH: EVQLVESGGGLVKPGGSLRLSCAASGFTFSSYSMNWVRQAPGKGLEWVSSISGSSSYIYYADSVKGRFTISRDNAKNSLYLQMNSLRAEDTAVYFCARGGSRGFDPWGQGTLVTVSS
VL: DIQMTQSPSSLSASVGDRVTITCRASQSITSYLNWYQQKPGKAPKLLIYTASSLQSGVPSRFSGSGSGTDFTLTISSLQPEDFATYYCQQSHSFPFTFGPGTKVDIKR
B4 was tested, and the binding was “binds”.

B5: 194A4 Fab (Fab, V domains shown)
VH: QVQLVQSGTEVKKPGASLKVSCKASGYTFTVYYLNWVRQAPGQGLEWMGWINPNSGGTNYAQKFQGRVTMTRDTSISTAYMELSRLRSDDTAVYYCARGYDILTGWGQGTLVTVSS
VL: EIVLTQSPGTLSLSPGERATLSCRASRGVSNIYLAWYQQKPGQAPRLLIYGASNRATGIPDRFSGSGSGTDFTLTISRLEPEDFAVYYCQHNDYSMFTFGPGTKVDIKR
In the case of B5, the binding is reported as “binds”.
